Experimental data reported in the supplement of paper PMC12823440, “Inhibitors supercharge kinase turnover through native proteolytic circuits” (Nature, 2025).
Some of the results follow. Hit calls seldom repeat between salt and free forms of one compound.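 In K562 cells expressing nanoluciferase-fused kinases, luminescence was recorded at 4 h intervals between 2 and 18 h, normalized as percent of control with DMSO at 100% and a positive control at 0%. A significant (2 sigma) signal drop marks a time point as decreased. The authors' rule for a hit is not shown and takes in more than the number of time points.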

By UniProt entry, the sequences of proteins in these tests, tags left out.
UniProt P06241, whole entry, looked up: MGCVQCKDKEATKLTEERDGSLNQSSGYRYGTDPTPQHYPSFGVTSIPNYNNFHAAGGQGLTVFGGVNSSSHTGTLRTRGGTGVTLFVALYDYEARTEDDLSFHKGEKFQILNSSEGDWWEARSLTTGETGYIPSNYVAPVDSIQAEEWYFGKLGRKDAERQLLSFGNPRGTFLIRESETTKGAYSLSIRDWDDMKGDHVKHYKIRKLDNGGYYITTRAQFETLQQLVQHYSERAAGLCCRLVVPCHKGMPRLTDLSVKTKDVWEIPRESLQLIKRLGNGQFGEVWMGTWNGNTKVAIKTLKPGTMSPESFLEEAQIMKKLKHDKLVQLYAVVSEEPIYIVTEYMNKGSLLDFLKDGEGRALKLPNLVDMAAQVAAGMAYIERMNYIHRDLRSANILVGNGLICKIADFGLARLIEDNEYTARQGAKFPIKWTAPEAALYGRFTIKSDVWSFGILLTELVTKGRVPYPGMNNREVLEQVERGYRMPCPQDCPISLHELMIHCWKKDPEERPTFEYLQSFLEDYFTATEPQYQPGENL

What follows are molecules tested against FYN (UniProt P06241) (assay: kinase-Nluc reporter destabilization hit call (1 = scored as downregulated) (binary); higher = compound decreases kinase abundance). Details: K562; 2-18 h.

kinase-Nluc reporter destabilization hit call, inactive:
O=c1cc(-c2ccc(O[C@@H]3O[C@H](CO)[C@@H](O)[C@H](O)[C@H]3O)cc2)oc2cc(O)c([C@@H]3O[C@H](CO)[C@@H](O)[C@H](O)[C@H]3O[C@@H]3OC[C@H](O)[C@H](O)[C@H]3O)c(O)c12 [Vaccarin] (10 µM) 0, O=CN1CCN(c2ccc(C=C3C(=O)Nc4ccccc43)cc2)CC1 (10 µM) 0, COc1ccc(Cl)cc1N(CC(=O)Nc1ccc2c(c1)OCO2)S(=O)(=O)c1ccccc1 (2.5 µM) 0, CCc1c(C(=O)NNC(=O)[C@H](O)c2cc(F)cc(F)c2)ccc(O)c1C (10 µM) 0, CN(C)CCn1cc2cc(NC(=O)c3cccc(C(F)(F)F)n3)c(C(C)(C)O)cc2n1 (10 µM) 0, CCC[C@H](C)Oc1nc(N)c2[nH]c(=O)n(CCCCCN3CCCCC3)c2n1 (10 µM) 0, CCOC(=O)c1c(C)[nH]c(C=C2C(=O)Nc3ccccc32)c1C (10 µM) 0, Cc1ccc(NC(=O)N2CCN(c3nc(N)nc4sc(-c5cccnc5)nc34)CC2)cc1 [PI4KIII beta inhibitor 3] (10 µM) 0, CS[C@@]1(C(=O)Nc2ccc3[nH]nc(-c4ccc(OC(C)C)nc4)c3c2)CCN(CC(=O)N2CC=C(c3ccc(-c4ncn(C)n4)cc3)CC2)C1 (2.5 µM) 0, O=C(Nc1ccc(Cl)cc1)C1CN(C(=O)c2cccc(-c3ccco3)c2)CC(F)(F)C1 (stereo unspecified) (2.5 µM) 0, Nc1ccc(Sc2nc3ccccc3s2)c(Cl)c1 [KRAS inhibitor-9] (10 µM) 0
